In patent publication US20030086972A1, “Hydrogel-driven drug dosage form” (priority 2000, published 2003):
In brackets after ≈: the same amount, converted by molar mass.

Experiment: physchem
Conditions: pH 6.5, aqueous buffer

COC(=O)C1=C(C)NC(C)=C(C(=O)OC)C1c1ccccc1[N+](=O)[O-] [Drug 4, nifedipine]
solubility: 26 µg/mL (≈ 75.1 µM)
